# Assay results published in PubChem BioAssay AID540276 (National Center for Advancing Translational Sciences (NCATS), 2011).
# The whole screen tested about 300,000 compounds, of which about 5,400 (1.8%) were called active. The shares of active, inactive and inconclusive entries below differ from those in the screen. Calls come from the whole dose curve; tested in HEK293 cells. Where the call is inconclusive, the potency comes from a doubtful curve fit.
# Assay: qHTS for inhibitors of binding or entry into cells for Marburg Virus
# Conditions: Marburg virus pseudotyped entry inhibition, cell reporter; activity change, negative = inhibition: at 37.8 µM (top of the series) unless noted
# % is set by controls: 0 for no effect and ±100 for the full control effect; potency is the fitted concentration of half-maximal effect.
SMILES,Potency,"activity change, negative = inhibition"
COc1cccc2sc(Nc3nc(C)c(C(C)=O)s3)nc12,"inconclusive: 29.1 µM [inhibitor, single point]",–
COc1ccc(C(=O)Oc2cc(C)c(CN3CCOCC3)cc2C)cc1OC,"inconclusive: 0.891 µM [inhibitor, full curve, poor fit]",–
CCN1C(=O)c2cccc3c(S(=O)(=O)N4CCC(C)CC4)ccc1c23,"inconclusive: 0.501 µM [inhibitor, full curve, poor fit]",–
O=C(N/N=C1\C2CN3CCN(C2)CC1(c1ccccc1)C3)c1ccc(F)cc1,–,inactive: -3.46% [at 46.1 µM]
COc1ccc(CCN(C(=O)c2cccc(F)c2)C2CC(=O)N(c3ccc(OC)cc3)C2=O)cc1 (centres undefined),"inconclusive: 35.5 µM [inhibitor, partial curve, poor fit]",–
N#CCc1nn(-c2ccc(Cl)cc2)c(N)c1C#N,–,inactive: -14%
CN(C)c1ccc(C(=O)OCc2ccccc2)cc1,–,inactive: -0.516%
COc1ccc(CCN2C(=O)CSC2=S)cc1OC,"inconclusive: 22.4 µM [inhibitor, single point]",–
CC(=O)Nc1ccc(S(=O)(=O)N2CCCN(S(=O)(=O)c3ccc(NC(C)=O)cc3)CC2)cc1,inactive,–
NS(=O)(=O)c1ccc(CNC(=O)c2ccc(Cl)cc2[N+](=O)[O-])cc1,"inconclusive: 1.12 µM [inhibitor, single point]",–
CC(C(=O)NCc1ccc2c(c1)OCO2)N1c2cccc3cccc(c23)S1(=O)=O (centres undefined),"inconclusive: 10 µM [inhibitor, partial curve, poor fit]",–
OCC1(CCCc2ccccc2)CCN(Cc2cnc(N3CCOCC3)s2)CC1,"inconclusive: 3.16 µM [inhibitor, full curve, poor fit]",–
O=C(c1nc2ccccc2[nH]1)c1ccccc1[N+](=O)[O-],"inconclusive: 3.55 µM [activator, partial curve, poor fit]",–
COc1cc(C(=O)Nc2sc3c(c2C(=O)O)CCC(C)C3)cc(OC)c1OC (centres undefined),"inconclusive: 1.26 µM [inhibitor, partial curve, poor fit]",–
O=C(c1ccc(S(=O)(=O)c2ccc(Cl)cc2)cc1)N1CCOCC1,"inconclusive: 3.98 µM [activator, single point]",–
O=C(CNC(=O)c1cccs1)NCC(=O)OCc1c(F)cccc1Cl,"inconclusive: 35.5 µM [activator, partial curve, poor fit]",–
NC(=O)c1ccc(-n2nnnc2SCC(=O)c2ccc(O)c(O)c2)cc1,–,inactive: 10.1% [at 46.1 µM]
CCOC(=O)CN1C(C(=O)c2ccccc2)=C(OC(=O)c2ccccc2)c2ccccc2S1(=O)=O,–,inactive: 0.459% [at 46.1 µM]
COc1cc2c(cc1OC)C(C1C(=O)CCCC1=O)N(C(=O)CCl)CC2 (centres undefined),–,inactive: -0.661%
Cc1cc(C)cc(NC(=O)Nc2cccs2)c1,"inconclusive: 22.4 µM [activator, partial curve]",–
Cc1ccc(S(=O)(=O)c2nc(Nc3nccs3)sc2Cl)cc1,"inconclusive: 29.1 µM [inhibitor, single point]",–
Cc1nnc(SCC(=O)NNC(=O)c2ccc(Cl)cc2)n1CC1CCCO1 (centres undefined),"inconclusive: 3.16 µM [activator, partial curve, poor fit]",–
Cc1ccc(NC(=O)c2ccc([N+](=O)[O-])o2)cc1C,"inconclusive: 20 µM [inhibitor, partial curve, poor fit]",–

SMILES,Potency,"activity change, negative = inhibition"
CCCc1cc(=O)[nH]c(SCC(=O)c2cc(C)n(CCOC)c2C)n1,–,inactive: 9.85%
CCCCNC(=O)CCCCC(=O)N/N=C/c1ccccc1Cl,"inconclusive: 16.4 µM [inhibitor, partial curve, poor fit]",–
COc1ccc(S(=O)(=O)N2CCOCC2)cc1NC(=O)CN(C)Cc1c(F)cccc1Cl,"inconclusive: 35.5 µM [inhibitor, single point]",–
CCCCNC(=O)C1CCCN(S(=O)(=O)c2ccc(S(=O)(=O)NCC(C)C)cc2)C1 (centres undefined),"inconclusive: 23.1 µM [inhibitor, single point]",–
CCCCOc1ccc(C(=O)Nc2onc3c2CCCC3)cc1,"inconclusive: 6.31 µM [activator, partial curve, poor fit]",–
CCn1c(SC)nnc1-c1sc2cc(Cl)ccc2c1Cl,–,inactive: -22.9%
COc1ccc(-c2noc(CCC(=O)N3CCN(c4cccc(C(F)(F)F)c4)CC3)n2)cc1,"inconclusive: 35.5 µM [inhibitor, single point]",–
COc1cccc(OC)c1OCc1cc(C2C3CCCC=C3C(C#N)=C(N)C2(C#N)C#N)c(C)cc1C (centres undefined),"inconclusive: 15.8 µM [inhibitor, single point]",–
COc1ccc(C(=O)c2c[nH]c(C(=O)NCC3CCCO3)c2)cc1 (centres undefined),"inconclusive: 0.794 µM [activator, full curve]",–
CCCCn1c(N)c(N(CCC(C)C)C(=O)C2CC(=O)N(c3cccc(SC)c3)C2)c(=O)[nH]c1=O (centres undefined),"inconclusive: 31.6 µM [activator, single point]",–
CCOc1ccccc1NC(=O)C(OC(=O)c1ccc(N(C)C)cc1)c1ccccc1 (centres undefined),"inconclusive: 11.2 µM [inhibitor, partial curve, poor fit]",–
CCOC(=O)C(Cc1cc(C(C)=O)ccc1OCC)C(=O)OCC,–,inactive: -2.24% [at 46.1 µM]
Cc1ncc(S(=O)(=O)c2ccccc2)c(-c2ccc(Cl)cc2Cl)n1,"inconclusive: 35.5 µM [inhibitor, single point]",–
Cc1nnc(-c2ccccc2)[nH]c1=O,–,inactive: 1.15% [at 46.1 µM]
COc1nc(-c2cnccn2)sc1C,"inconclusive: 22.4 µM [inhibitor, partial curve, poor fit]",–
CN(Cc1cccc(F)c1)C(=O)CSc1nnc(C2CC2)n1C1CC1,"inconclusive: 1 µM [inhibitor, single point]",–
COc1ccc(-c2cc(C(F)(F)F)nc(NC3CCCC3)n2)cc1OC,"inconclusive: 23.1 µM [inhibitor, partial curve, poor fit]",–
COc1ccccc1N1CCN(c2ccc(S(=O)(=O)N3CCN(C)CC3)cn2)CC1,"inconclusive: 2.82 µM [inhibitor, single point]",–
COc1ccc(NC(=S)/N=C(\N)Nc2nc(C)c3ccccc3n2)cc1,"inconclusive: 10 µM [inhibitor, partial curve, poor fit]",–
N#Cc1c(N)n(C2OC(CO)C(O)C2O)c2ncnc(N)c12 (centres undefined),active: 0.501 µM,–
Nc1cc(OCC(F)(F)F)cc(OCC(F)(F)F)c1,"inconclusive: 35.5 µM [activator, single point]",–
CCN(CC)CCNC(=O)CNC(=S)N(CCCN1CCOCC1)Cc1cccs1,"inconclusive: 35.5 µM [inhibitor, single point]",–
COc1ccc(N2CCN(C3CCCN(C(=O)c4ccoc4)C3)CC2)cc1 (centres undefined),"inconclusive: 22.4 µM [inhibitor, partial curve, poor fit]",–

# Complete entries, quoted from the list. Order of values: Potency | activity change, negative = inhibition
# CCOc1ccccc1NC(=O)C(OC(=O)c1ccc(N(C)C)cc1)c1ccccc1 (centres undefined) is listed with inconclusive: 11.2 µM [inhibitor, partial curve, poor fit] | –
# CCCCOc1ccc(C(=O)Nc2onc3c2CCCC3)cc1 is listed with inconclusive: 6.31 µM [activator, partial curve, poor fit] | –
# CCCCNC(=O)CCCCC(=O)N/N=C/c1ccccc1Cl is listed with inconclusive: 16.4 µM [inhibitor, partial curve, poor fit] | –
# COc1cccc(OC)c1OCc1cc(C2C3CCCC=C3C(C#N)=C(N)C2(C#N)C#N)c(C)cc1C (centres undefined) is listed with inconclusive: 15.8 µM [inhibitor, single point] | –

# (list continues)

SMILES,Potency,"activity change, negative = inhibition"
O=C(NCCC1=CCCCC1)c1ccc2c(c1)N(Cc1ccc(Cl)cc1)C(=O)c1ccccc1S2=O (centres undefined),"inconclusive: 7.94 µM [inhibitor, partial curve, poor fit]",–
CC1=C(c2ccc(C)c(C)c2)S(=O)(=O)N=C1N1CCC(C(=O)NCc2ccc(Cl)cc2)CC1,"inconclusive: 0.562 µM [inhibitor, full curve, poor fit]",–
O=C(NNS(=O)(=O)c1ccccc1)c1cc2cc3ccccc3nc2s1,–,inactive: 16.9%
COc1ccc(NC(=O)COc2ccc(N(C)S(=O)(=O)c3ccc(C)cc3)cc2)cc1,–,inactive: -12.7%
COc1ccc(Cl)cc1C(=O)NNC(=O)CNC(=O)c1ccc(C)s1,"inconclusive: 6.31 µM [inhibitor, partial curve, poor fit]",–
CC(OC(=O)CCc1nc2ccccc2c(=O)[nH]1)C(=O)c1ccc(C(C)(C)C)cc1 (centres undefined),–,inactive: -6.9%
Cc1ccc(Cc2c(C)nc3nc(SCC(=O)NCCCN4CCOCC4)nn3c2C)cc1,active: 8.91 µM,–
CCOc1ccc(-c2cc(C(=O)OC)[nH]n2)cc1,"inconclusive: 6.31 µM [activator, single point]",–
CCc1cccc(NC(=O)CC2Oc3ccc(C)cc3NC2=O)c1 (centres undefined),–,inactive: 17.6% [at 46.1 µM]
Cc1ccc(NC(=O)CC2Sc3ccccc3NC2=O)c(Br)c1 (centres undefined),"inconclusive: 17.8 µM [inhibitor, single point]",–
N#Cc1c(N)n(-c2ccccc2N)c2nc3ccccc3nc12,–,inactive: -0.0899% [at 46.1 µM]
O=C1c2ccccc2C(=O)N1CCCCN(C(=O)c1ccc([N+](=O)[O-])cc1)c1ccc(Cl)cc1,"inconclusive: 31.6 µM [inhibitor, single point]",–
Nc1nnc(SCC(=O)N2CCc3ccccc3C2)s1,–,inactive: 2% [at 46.1 µM]
CCN1C(=O)NC(CCc2ccccc2)C(C(C)=O)=C1C (centres undefined),–,inactive: -8.87% [at 14.2 µM]
CC1CCCCN1C(=O)CSc1nc2ccccc2n1CC(=O)N1CCc2ccccc21 (centres undefined),"inconclusive: 29.1 µM [inhibitor, single point]",–
CN(Cc1nc2ccccc2n1C)C(=O)c1cccs1,–,inactive: 3.75%
CCOC(=O)[C@H](c1ccccc1)N1CCN(c2ccc(OC)cc2)CC1,–,inactive: 1.02%
Clc1ccc(OCc2nc(-c3ccncc3)no2)cc1,–,inactive: 27.2%
O=c1[nH]c2ccc(NCc3ccccc3F)cc2[nH]1,–,inactive: -25.1% [at 46.1 µM]
NNC(=O)c1csc(-c2ccccc2)n1,–,inactive: -4.16%
Cc1ccc(Nc2nc(N)nc(CSc3nnc(-c4ccncc4)o3)n2)cc1,–,inactive: 2.82%
O=S(=O)(c1ccccc1)N1CCC(O)(CN2CCN(c3ccccc3)CC2)CC1,"inconclusive: 6.31 µM [inhibitor, single point]",–
Cc1ccc(S(=O)(=O)Nc2ccc3c(c2)c2c(n3S(=O)(=O)c3ccc(C)cc3)CCCC2=O)cc1,"inconclusive: 22.4 µM [inhibitor, single point]",–
